PubChem BioAssay AID720505, Drosophila RNAi Screening Center, 2013
In all, the deposit lists about 20,000 reagents; this is an unselected part of those with a known target gene and a result. Over the whole deposit, about 2,100 (10%) are marked active. 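Raw plate signals without normalisation; calls rest on control-based scores that were not deposited; replicate 2 separates called from uncalled poorly.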 A number with no mark means an inactive call. A plus sign joins genes that one reagent is predicted to hit. The record does not give: the amount of reagent, the time to read-out.

Purpose: 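Genes needed for store-operated calcium entry in fly cells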 (primary screen)
System: Drosophila S2R+ cells
Reagent: long dsRNA against Drosophila genes
Treatment: thapsigargin (2 µM) in calcium-free buffer to empty internal stores, then 2 mM calcium added back
Detection: 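Stores emptied by 2 µM thapsigargin without calcium, then 2 mM calcium re-added; fluo-4 fluorescence followed by FLIPR in 384-well plates, per-well averaged endpoint, raw; two screen passes, some wells retested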
Direction: calcium signal: higher = more calcium entry after store depletion
Call rule: 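Knock-downs counted as hits when calcium entry dropped relative to STIM1 positive and Rho1 negative controls present on each plate; roughly 1500 genes called, with reductions of differing size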
Calls: active = called as lowering calcium entry; inactive = not called

With CG3222 [DRSC10355], what was measured?
calcium signal, replicate 1: 94.9; calcium signal, replicate 2: 105

With CG17528 [DRSC07761], what was measured?
calcium signal, replicate 1: 75.5; calcium signal, replicate 2: 143

What is on record for Dus4 [DRSC02066]?
calcium signal, replicate 1: 131; calcium signal, replicate 2: 122

What is on record for Efhc1.2 [DRSC06027]?
calcium signal, replicate 1: 141; calcium signal, replicate 2: 119

With CG13698 [DRSC10047], how do the results read?
calcium signal, replicate 1: 110; calcium signal, replicate 2: 130

For CG13024 [DRSC09904], what does the deposit list?
calcium signal, replicate 1: 88.5; calcium signal, replicate 2: 141

What did the screen give for snama [DRSC04049]?
calcium signal, replicate 1: 181; calcium signal, replicate 2: 93.2

For CG12506 [DRSC00347], what was measured?
calcium signal, replicate 1: 141; calcium signal, replicate 2: 122

How did the screen score puf [DRSC15875]?
calcium signal, replicate 1: 254; calcium signal, replicate 2: 140

Which result is listed for puf [DRSC23167]?
calcium signal, replicate 1: 112; calcium signal, replicate 2: 109

For CG4751 [DRSC02776], how do the results read?
calcium signal, replicate 1: 88.2; calcium signal, replicate 2: 103

How did the screen score CG2818 [DRSC00540]?
calcium signal, replicate 1: 132; calcium signal, replicate 2: 216

Which result is listed for CG16800 [DRSC02518]?
calcium signal, replicate 1: 108; calcium signal, replicate 2: 163

Which result is listed for CG7406 [DRSC20042]?
calcium signal, replicate 1: 92.4; calcium signal, replicate 2: 86.3

What is on record for Acox57D-d [DRSC04561]?
calcium signal, replicate 1: 166; calcium signal, replicate 2: 93.8

How did the screen score Nep2 [DRSC12126]?
calcium signal, replicate 1: 119; calcium signal, replicate 2: 87

For Nep2 [DRSC21398], how do the results read?
calcium signal, replicate 1: 193; calcium signal, replicate 2: 129

With CG3640 [DRSC04399], what does the deposit list?
calcium signal, replicate 1: 154; calcium signal, replicate 2: 202

With Urod [DRSC07569], how do the results read?
calcium signal, replicate 1: 126; calcium signal, replicate 2: 195

With CG18659 [DRSC06784], what does the deposit list?
calcium signal, replicate 1: 143; calcium signal, replicate 2: 130

How did the screen score CG10979 [DRSC12153]?
calcium signal, replicate 1: 128; calcium signal, replicate 2: 191

What is on record for fu [DRSC20333]?
calcium signal, replicate 1: 76.2 (active); calcium signal, replicate 2: 71.2

How did the screen score Sms [DRSC10408]?
calcium signal, replicate 1: 114; calcium signal, replicate 2: 93.5

How did the screen score Cpr47Eb [DRSC06345]?
calcium signal, replicate 1: 91.1; calcium signal, replicate 2: 134

Which result is listed for CG17780 + CG17781 [DRSC15266]?
calcium signal, replicate 1: 277; calcium signal, replicate 2: 101

For CG11509 (retired record) [DRSC17788], how do the results read?
calcium signal, replicate 1: 70.5 (active); calcium signal, replicate 2: 94.8

How did the screen score Prosalpha6 [DRSC03401]?
calcium signal, replicate 1: 117 (active); calcium signal, replicate 2: 96.8

For CG12502 [DRSC08281], what does the deposit list?
calcium signal, replicate 1: 102; calcium signal, replicate 2: 129

How did the screen score CG12502 [DRSC23247]?
calcium signal, replicate 1: 84.5; calcium signal, replicate 2: 128
